Measurements reported in patent US20230323410A1, “BACTERIAL CELLS AND METHODS FOR PRODUCTION OF 2-FLUORO-CIS,CIS-MUCONATE” (priority 2020, published 2023).

Legend:
[1] = system: P. putida KT2440; assay: Shaken flask fermentation with 10 mM 2-FBz or 3-FBz; format: cell-based, Pseudomonas putida
[2] = system: P. knackmussii; assay: as above; format: cell-based, Pseudomonas knackmussii

O=C(O)c1ccccc1F [Strain 2-FBz, 2-fluorobenzoic acid]
time to complete consumption ([1]; 10 mM 2-FBz, 30 mM glucose): ≤ 20 h

O=C(O)/C=C\C=C(\F)C(=O)O [Strain 2-FMA, 2-fluoro-cis,cis-muconate]
concentration at the end of the fermentation ([1]; 10 mM 3-FBz, product 2-FMA): 1.38 mM | concentration after substrate depletion ([1]; from 10 mM 2-FBz): 1.34 mM | product yield YSP ([1]; substrate 3-FBz): 0.41 mol mol-1 | YSP ([2]; from 3-FBz): 0.41 mol mol-1 | amount produced ([2]; from 3-FBz): 1.64 mM | product as share of the substrate ([2]; from 3-FBz): 56% | amount produced ([2]; out of 6 mM 2-FBz consumed): about 1 mM | product yield coefficient YSP ([2]; substrate 2-FBz paragraph): 0.14 mol mol^−1

O=C(O)/C=C\C=C/C(=O)O [ccMA, cis,cis-muconic acid]
maximum concentration in the culture supernatant ([2]; 10 mM 2-FBz, after 30 h): 1.55 mM

O=C(O)c1cccc(F)c1 [Strain 3-FBz, 3-fluorobenzoic acid]
total concentration consumed ([2]; 10 mM 3-FBz supplied): 2.93 mM

Oc1cccc(F)c1O [Strain 3-FC, 3-fluorocatechol]
concentration reached within the first 7 h ([1]; 10 mM 3-FBz): 1 mM | concentration at the end of the fermentation ([1]; 10 mM 3-FBz, intermediate 3-FC): 0.52 mM | initial increase in the culture supernatant up to ([2]; 10 mM 3-FBz, completely re-consumed until 20 h): 0.94 mM
